No constants are given. Whether binding was seen depends on the method and setting. In cells and extracts the contact can be indirect. Binding can be weak; no strength is given. For some assays here: Where a sequence is shown, tags or fusion partners need not be part of it.

Drawing on publication PMC11760013, this text covers binding for one substance.

Experiment [1] deals with T1, Linker3 of mNLRP1b (HEK293T construct) (mouse) (UniProt Q2LKW6).
T1 sequence: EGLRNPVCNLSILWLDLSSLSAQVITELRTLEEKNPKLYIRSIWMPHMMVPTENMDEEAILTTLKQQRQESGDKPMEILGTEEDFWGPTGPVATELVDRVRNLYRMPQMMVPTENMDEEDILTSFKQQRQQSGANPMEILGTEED
In words: co-IP; HEK293T co-transfected, lysed 48 h later in 50 mM Tris-HCl pH 7.4, 150 mM NaCl, 1% NP-40, 1 mM EDTA, 10% glycerol; IP with anti-Flag M2 agarose 4 h at 4 °C; immunoblot; the NT-CT pairs also in DPP8/9 double-knockout HEK293T (binding unaffected).

In experiment [2] the target is T2, cleavage-resistant mNLRP1b S984A, N-terminal Flag tag (mouse) (UniProt Q2LKW6).
T2 sequence: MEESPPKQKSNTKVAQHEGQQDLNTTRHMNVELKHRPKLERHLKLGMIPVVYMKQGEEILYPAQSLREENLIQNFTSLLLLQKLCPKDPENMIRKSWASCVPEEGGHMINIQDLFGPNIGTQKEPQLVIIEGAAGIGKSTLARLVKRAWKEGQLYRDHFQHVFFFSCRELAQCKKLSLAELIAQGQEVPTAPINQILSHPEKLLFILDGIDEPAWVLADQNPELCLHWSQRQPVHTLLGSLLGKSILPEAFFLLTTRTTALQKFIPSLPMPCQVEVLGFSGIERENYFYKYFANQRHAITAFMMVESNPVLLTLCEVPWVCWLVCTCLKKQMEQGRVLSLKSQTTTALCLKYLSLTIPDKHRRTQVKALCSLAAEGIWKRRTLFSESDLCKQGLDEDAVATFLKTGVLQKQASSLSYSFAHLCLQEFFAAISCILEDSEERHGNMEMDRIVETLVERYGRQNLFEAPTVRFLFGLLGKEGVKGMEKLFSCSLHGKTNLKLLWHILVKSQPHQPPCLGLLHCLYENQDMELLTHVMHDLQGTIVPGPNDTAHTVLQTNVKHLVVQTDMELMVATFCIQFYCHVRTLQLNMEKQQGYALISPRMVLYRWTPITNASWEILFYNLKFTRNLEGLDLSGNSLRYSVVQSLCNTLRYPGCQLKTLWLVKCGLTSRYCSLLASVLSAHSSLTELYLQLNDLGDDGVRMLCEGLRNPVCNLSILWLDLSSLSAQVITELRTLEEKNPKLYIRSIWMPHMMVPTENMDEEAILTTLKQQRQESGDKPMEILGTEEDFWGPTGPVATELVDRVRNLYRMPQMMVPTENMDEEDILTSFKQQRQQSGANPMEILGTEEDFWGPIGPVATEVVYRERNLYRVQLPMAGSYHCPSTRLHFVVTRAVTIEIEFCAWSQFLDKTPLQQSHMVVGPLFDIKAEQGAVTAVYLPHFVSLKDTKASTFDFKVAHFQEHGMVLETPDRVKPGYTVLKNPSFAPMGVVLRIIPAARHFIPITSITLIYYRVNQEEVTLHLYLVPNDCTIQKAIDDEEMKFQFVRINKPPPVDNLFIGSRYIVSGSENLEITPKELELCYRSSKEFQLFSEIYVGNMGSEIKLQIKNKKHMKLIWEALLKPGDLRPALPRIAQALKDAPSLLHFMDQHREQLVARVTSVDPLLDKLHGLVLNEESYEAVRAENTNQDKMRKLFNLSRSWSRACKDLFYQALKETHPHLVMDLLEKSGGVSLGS
Described as above.

Regarding “mNLRP1b^CT, C-terminal HA tag (mouse) (domain or fragment)”, the binding entry in experiment [1] and in experiment [2] was “binds” throughout.
